In article PMC4491822:
Results are given in words; binding and its absence hold for the method and conditions named. In cells and extracts the contact can be indirect. Some binding calls cover weakened binding; strength is not graded here.

Protein sequences, listed by entry. Tags and fused reporters are not part of them.
UniProt Q8VDD5: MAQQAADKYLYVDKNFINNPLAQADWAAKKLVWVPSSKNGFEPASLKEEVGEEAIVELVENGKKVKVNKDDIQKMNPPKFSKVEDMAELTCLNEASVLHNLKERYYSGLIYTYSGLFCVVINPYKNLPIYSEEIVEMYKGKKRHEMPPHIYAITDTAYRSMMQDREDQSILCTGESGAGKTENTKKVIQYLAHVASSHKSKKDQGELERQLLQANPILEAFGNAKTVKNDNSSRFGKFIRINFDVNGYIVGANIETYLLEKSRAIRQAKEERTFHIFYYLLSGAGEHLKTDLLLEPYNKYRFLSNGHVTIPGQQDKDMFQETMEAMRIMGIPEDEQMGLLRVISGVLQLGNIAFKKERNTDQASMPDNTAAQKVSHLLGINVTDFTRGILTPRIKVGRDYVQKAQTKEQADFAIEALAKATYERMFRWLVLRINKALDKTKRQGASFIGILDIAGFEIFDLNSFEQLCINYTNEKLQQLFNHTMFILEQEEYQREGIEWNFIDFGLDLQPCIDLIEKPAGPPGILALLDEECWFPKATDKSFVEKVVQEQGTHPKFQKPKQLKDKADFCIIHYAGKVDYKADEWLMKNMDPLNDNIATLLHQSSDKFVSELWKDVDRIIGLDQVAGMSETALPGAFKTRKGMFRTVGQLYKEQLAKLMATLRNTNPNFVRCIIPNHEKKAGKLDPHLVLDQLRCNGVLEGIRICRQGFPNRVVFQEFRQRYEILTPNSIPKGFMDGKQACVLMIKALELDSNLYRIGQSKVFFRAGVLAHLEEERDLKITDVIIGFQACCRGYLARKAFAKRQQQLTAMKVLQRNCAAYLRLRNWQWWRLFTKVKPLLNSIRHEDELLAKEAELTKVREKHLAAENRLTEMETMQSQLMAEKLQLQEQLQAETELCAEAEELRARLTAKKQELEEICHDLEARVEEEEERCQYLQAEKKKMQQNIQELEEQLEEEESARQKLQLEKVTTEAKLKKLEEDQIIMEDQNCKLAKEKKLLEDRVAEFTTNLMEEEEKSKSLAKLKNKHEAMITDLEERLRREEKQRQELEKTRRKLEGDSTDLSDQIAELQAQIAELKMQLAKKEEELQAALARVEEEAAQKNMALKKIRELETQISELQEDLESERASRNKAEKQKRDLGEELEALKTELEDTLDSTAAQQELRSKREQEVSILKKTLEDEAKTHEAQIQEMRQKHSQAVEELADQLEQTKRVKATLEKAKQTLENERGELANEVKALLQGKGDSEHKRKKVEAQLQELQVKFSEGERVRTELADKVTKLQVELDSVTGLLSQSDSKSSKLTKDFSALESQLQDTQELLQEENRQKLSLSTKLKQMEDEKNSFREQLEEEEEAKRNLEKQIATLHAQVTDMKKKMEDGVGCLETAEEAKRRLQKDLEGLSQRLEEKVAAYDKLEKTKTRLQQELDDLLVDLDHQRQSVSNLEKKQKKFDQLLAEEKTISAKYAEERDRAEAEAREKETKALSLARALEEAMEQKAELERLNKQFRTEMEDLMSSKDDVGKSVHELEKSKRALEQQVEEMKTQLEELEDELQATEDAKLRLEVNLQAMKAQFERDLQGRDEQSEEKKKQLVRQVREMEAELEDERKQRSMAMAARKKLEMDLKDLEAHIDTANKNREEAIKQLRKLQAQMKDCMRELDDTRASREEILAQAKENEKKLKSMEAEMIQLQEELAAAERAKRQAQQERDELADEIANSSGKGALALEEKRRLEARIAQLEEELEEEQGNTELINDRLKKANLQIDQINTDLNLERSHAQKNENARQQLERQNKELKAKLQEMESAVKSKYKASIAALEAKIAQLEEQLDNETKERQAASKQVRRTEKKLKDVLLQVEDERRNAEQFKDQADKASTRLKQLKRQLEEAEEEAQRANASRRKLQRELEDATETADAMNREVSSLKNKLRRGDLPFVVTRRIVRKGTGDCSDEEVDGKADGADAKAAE

Biological target: myosin IIA heavy chain-GFP (knock-in) (mouse) (UniProt Q8VDD5)
Assay: proximity ligation; Duo-Link in situ (Olink) on immature mouse DCs fixed and permeabilised in microchannels; rabbit anti-GFP or anti-γTubulin with rat anti-Ii; signal quantified as mean intensity of the whole cell

binding: binds
B1: MHC class II-associated invariant chain (Ii), mouse (protein, UniProt P04441-2 1-215)
chain: MDDQRDLISNHEQLPILGNRPREPERCSRGALYTGVSVLVALLLAGQATTAYFLYQQQGRLDKLTITSQNLQLESLRMKLPKSAKPVSQMRMATPLLMRPMSMDNMLLGPVKNVTKYGNMTQDHVMHLLTRSGPLEYPQLKGTFPENLKHLKNSMDGVNWKIFESWMKQWLLFEMSKNSLEEKKPTEAPPKEPLDMEDLSSGLGVTRQELGQVTL
